Results are given in words; binding and its absence hold for the method and conditions named. In cells and extracts the contact can be indirect. Some results given as binding are weak or reduced against the parent protein; the word gives no strength.
Assays:
[1] = biological target: Sarco(endo)plasmic reticulum Ca2+-ATPase 2a (human (endogenous in vastus lateralis)) (UniProt P16615); assay: co-IP; Protein G agarose beads coupled with 5 μg of antibody against SERCA1a, SERCA2a, PLN or SLN; incubated overnight at 4°C with 400 μg of protein from human vastus lateralis homogenate; low-pH elution; Western blot for SLN, PLN, SERCA1a or SERCA2a; homogenates from 3 individuals
[2] = biological target: Sarco(endo)plasmic reticulum Ca2+-ATPase 1a (human (endogenous in vastus lateralis)) (UniProt O14983); assay: as above

Protein sequences, listed by entry. Tags and fused reporters are not part of them. Lines headed by an entry give the natural chain unless they say otherwise; changes in a name come on top. Chains listed by the source or under a name are the forms on record and can include a tag or linker.
Sarco(endo)plasmic reticulum Ca2+-ATPase 2a (human (endogenous in vastus lateralis)) (P16615, form named): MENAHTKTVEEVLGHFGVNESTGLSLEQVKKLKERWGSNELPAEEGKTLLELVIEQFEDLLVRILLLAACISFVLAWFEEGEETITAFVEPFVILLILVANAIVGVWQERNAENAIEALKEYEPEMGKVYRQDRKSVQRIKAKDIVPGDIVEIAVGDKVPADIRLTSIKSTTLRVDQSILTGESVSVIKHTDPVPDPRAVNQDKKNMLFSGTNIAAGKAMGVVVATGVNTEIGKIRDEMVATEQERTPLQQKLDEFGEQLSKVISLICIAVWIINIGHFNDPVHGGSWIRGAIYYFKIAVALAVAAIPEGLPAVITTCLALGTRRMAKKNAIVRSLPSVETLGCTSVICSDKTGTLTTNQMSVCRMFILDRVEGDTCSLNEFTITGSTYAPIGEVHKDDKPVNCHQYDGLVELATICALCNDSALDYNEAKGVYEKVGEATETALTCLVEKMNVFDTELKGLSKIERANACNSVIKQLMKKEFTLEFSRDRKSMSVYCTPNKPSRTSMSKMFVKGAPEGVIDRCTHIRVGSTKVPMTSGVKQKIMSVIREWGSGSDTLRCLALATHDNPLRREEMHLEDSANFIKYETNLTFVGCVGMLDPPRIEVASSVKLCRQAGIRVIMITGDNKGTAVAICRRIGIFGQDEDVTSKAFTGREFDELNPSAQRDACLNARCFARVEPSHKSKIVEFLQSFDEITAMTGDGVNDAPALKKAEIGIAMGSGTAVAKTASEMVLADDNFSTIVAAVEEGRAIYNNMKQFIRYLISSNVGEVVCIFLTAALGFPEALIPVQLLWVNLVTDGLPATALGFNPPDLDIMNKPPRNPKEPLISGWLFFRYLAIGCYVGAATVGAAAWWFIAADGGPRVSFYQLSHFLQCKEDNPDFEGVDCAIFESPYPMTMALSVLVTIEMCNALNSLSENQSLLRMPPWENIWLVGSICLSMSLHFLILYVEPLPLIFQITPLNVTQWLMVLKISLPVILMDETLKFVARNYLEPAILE
Sarco(endo)plasmic reticulum Ca2+-ATPase 1a (human (endogenous in vastus lateralis)) (O14983, form named): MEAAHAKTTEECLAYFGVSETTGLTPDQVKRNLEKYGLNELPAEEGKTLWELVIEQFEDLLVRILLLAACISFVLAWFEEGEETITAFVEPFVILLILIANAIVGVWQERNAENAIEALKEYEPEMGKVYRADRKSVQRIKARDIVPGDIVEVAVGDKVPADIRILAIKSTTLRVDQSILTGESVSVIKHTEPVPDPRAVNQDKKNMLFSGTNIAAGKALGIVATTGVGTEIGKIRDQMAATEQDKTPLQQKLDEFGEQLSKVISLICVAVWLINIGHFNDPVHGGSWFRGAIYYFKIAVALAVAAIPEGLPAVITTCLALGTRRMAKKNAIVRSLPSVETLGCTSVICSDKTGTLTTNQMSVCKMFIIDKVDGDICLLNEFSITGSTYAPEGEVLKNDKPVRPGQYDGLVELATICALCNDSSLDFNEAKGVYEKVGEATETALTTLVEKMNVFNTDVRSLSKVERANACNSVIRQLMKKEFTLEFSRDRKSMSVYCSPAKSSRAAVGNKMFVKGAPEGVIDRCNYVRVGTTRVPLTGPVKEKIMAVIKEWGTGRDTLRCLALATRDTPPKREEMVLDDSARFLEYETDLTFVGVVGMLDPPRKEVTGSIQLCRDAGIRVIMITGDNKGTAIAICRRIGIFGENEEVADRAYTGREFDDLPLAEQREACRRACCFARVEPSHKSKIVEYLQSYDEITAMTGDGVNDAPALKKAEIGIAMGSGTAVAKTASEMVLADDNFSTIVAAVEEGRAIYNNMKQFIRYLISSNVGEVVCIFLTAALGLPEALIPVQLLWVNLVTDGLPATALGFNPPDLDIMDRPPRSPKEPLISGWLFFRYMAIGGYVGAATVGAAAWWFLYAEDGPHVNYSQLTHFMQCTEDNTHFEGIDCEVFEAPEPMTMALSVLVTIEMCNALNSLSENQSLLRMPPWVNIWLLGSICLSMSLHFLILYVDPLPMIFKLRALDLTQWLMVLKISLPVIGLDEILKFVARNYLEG
UniProt P26678: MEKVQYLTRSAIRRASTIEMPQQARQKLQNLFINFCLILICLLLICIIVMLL

Phospholamban (from UniProt P26678 1-52)
binding [1]: binds
binding [2]: binds

Reference: article PMC3865254
